Data taken from ChEMBL document CHEMBL3988442, “University of Dundee, Small-Polar-MMV Screening Library” (2021).

Each number is a percent effect as filed. The controls that fix the scale are not given in the record; negative values are as filed. Compounds were drawn at random from those tested, without regard to their results. Two or more numbers in one place are separate tests of the same structure; such repeats can differ widely.

A: 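Phenotypic screen: M. tuberculosis growth, cholesterol and DPPC medium, 4 days; the read-out is not stated. Concentration: 50 µM. Direction is inferred from retests: higher values go with more growth inhibition. About 69,000 compounds were tested under these conditions; 0.54% (about 370) showed 50% or more at least once.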
B: 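Whole-cell growth test on Mycobacterium tuberculosis, read after 3 days in glucose-containing 7H9 medium; the read-out is not stated. Concentration: 50 µM. The record gives no direction; compounds that gave an IC50 in retests scored well above the rest, so higher reads as more growth inhibition. About 69,000 compounds were tested under these conditions; 1.1% (about 760) showed 50% or more at least once.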

Compound | A | B
CC1(C)CN(C(=O)c2cc(F)cc3[nH]cnc23)CCS1 | 0.8915% | 5.017%
[H][C@@]12CN(C(=O)[C@H]3CCCO3)C[C@@]1([H])N(CC(C)C)C(=O)CO2 | 6.044% | -31.02% and 1.227%
CCc1nccn1CC1CCCN1S(=O)(=O)Cc1ccccc1 (stereo not drawn) | 6.716% | 10.54%
NC(=O)C1(CCCc2cccnc2)CCCN(c2ncccn2)C1 (stereo not drawn) | 4.402% | 14.21%
Cc1c(CCC(=O)N2CCCC2c2ccnc(N(C)C)c2)cnn1C (stereo not drawn) | 8.33% | 37.32%
CC(C)(C)CCS(=O)(=O)NCCc1csc(N2CCCC2)n1 | 11.34% | -6.695%
CN(Cc1ccccc1)c1ncccc1CNC(=O)c1ccnn1C | -3.757% | -15.71% and 3.675%
O=C(O)C(F)(F)F.[H][C@@]12COC[C@]1([H])[C@@H](OCc1csc(C)n1)CN2C(=O)c1cnoc1C | -13.52% | -19.17%
CN(Cc1n[nH]c(=O)n1Cc1ccccc1F)S(C)(=O)=O | 13.95% | -7.794%
Cc1cccc(CN2Cc3nccn3CC(CN3CCOCC3)C2)c1.O=C(O)C(F)(F)F.O=C(O)C(F)(F)F (stereo not drawn) | 1.246% | 29.11%
CCC(C)(NCC(=O)OC)c1nccs1 (stereo not drawn) | -6.199% and -14.72% | -2.363%
[H][C@@]12CS(=O)(=O)C[C@]1([H])N(S(=O)(=O)N1CCC(OC)CC1)CCN2CC | 4.202% | 32.2%
CC(Cn1ccnc1)NC(=O)N(C)Cc1ccco1 (stereo not drawn) | 6.703% | 10.75%
COCc1nc(NC(C)c2c(C)n[nH]c2C)c2cnn(C)c2n1 (stereo not drawn) | 0.8751% | 9.1%
CN1C(=O)CC[C@]12CC[C@@H](NCc1ccsc1)CC2.O=C(O)C(F)(F)F | 1.166% | 9.939%
COc1ccc(CN2CCCn3nnc(COCC4CC4)c3C2)cc1.O=C(O)C(F)(F)F | -9.192% and -3.333% | -15.55%
COC(=O)c1ccc(N2CCN(C(=O)CC(F)(F)F)C(C)C2)cc1 (stereo not drawn) | -16.83% | -12.91%
OC1(CN2CCCC2)CCCN(Cc2cnc(-c3ccco3)nc2)C1 (stereo not drawn) | -12.06% | 1.749% and -14.27%
COCC(=O)N1CCN(C(=O)c2scnc2C)CC1 | -7.2% | 10.6% and -0.8384%
CN(C(=O)c1cccc2[nH]ncc12)C1CCN(c2ccccn2)CC1 | -9.326% | -3.844%
CC(C)C(CNCc1cccc2c1OCO2)N1CCOCC1 (stereo not drawn) | 7.49% | 4.597%
CC(C)NC(=O)C1CN(C(=O)c2cccs2)CC12CCOCC2 (stereo not drawn) | 17.79% | 25.73% and -5.184%
CCc1[nH]ncc1C(=O)N1CCCC(n2nc(C)cc2C)C1 (stereo not drawn) | 3.105% | -5.564%
CCC(C)NS(=O)(=O)Cc1cccc(NC(=O)C(C)C)c1 (stereo not drawn) | -4.528% | -4.733%
O=C(O)C(F)(F)F.[H][C@@]12CN(Cc3ccoc3)CCO[C@]1([H])CN(C(=O)Cc1ccsc1)C2 | 9.715% | 2.715%
CCc1nnc(CN2CCCC2Cn2cc(C)cn2)o1 (stereo not drawn) | -7.545% | -39.05% and -1.625%
Cl.OC[C@H]1CC[C@]2(CC1)CN(Cc1ccccc1F)Cc1ccccc1O2 | 2.14% | 9.416%
CCCc1cc(C(=O)N(Cc2cccnc2)C2CCCCC2)[nH]n1 | 9.143% | -11.13% and 2.316%
CCCc1cc(N2CCCC2Cn2nc(C)nc2C)n2ncnc2n1 (stereo not drawn) | 1.514% | 6.133%
COc1cccc(CNCc2c(C(C)C)nn(C)c2N(C)C)c1 | -13.29% | -12.85%
CN(C)C(=O)N1CCN(C(=O)c2ccccc2)CC2(CNC(=O)C2)C1 (stereo not drawn) | -12.06% | -20.81%
COc1ccc(-n2cccn2)c(CN2CCOCC(CN(C)C)C2)c1 (stereo not drawn) | -3.811% | -22.44% and -6.537%
O=S1(=O)CCC(n2cc(CNCC3(c4ccccc4)CC3)cn2)C1 (stereo not drawn) | -25.69% | -18.4%
OC(CN1CCC(c2ccn[nH]2)CC1)c1ccc(F)cc1F (stereo not drawn) | 4.323% | 15.81% and -1.735%
CSc1ccc(CN(CCO)Cc2nccn2C)cc1 | 31.87% | 1.292%
O=C(Nc1ccccc1Oc1cccc(F)c1)C1CCS(=O)(=O)C1 (stereo not drawn) | 6.478% | 8.526% and -17.97%
O=C(O)C(F)(F)F.[H][C@@]12CCN(Cc3scnc3C)C[C@]1(C(=O)NC1CC1)CCO2 | -16.9% and -10.76% | 22.65% and 20.11%
CNC(=O)c1cccnc1NCc1ccc(-n2cccn2)cc1 | 25.58% | 14.53% and 37.69%
CCc1noc(CCC(=O)N2CCC(c3ccn[nH]3)C2)n1 (stereo not drawn) | -27.01% and -9.047% | -30.48%
CCCNC(=O)CCNC(=O)c1ccccc1N1CCOCC1 | -5.164% and 4.605% | 8.24%
[H][C@@]12CN(C)C[C@]1(C(=O)N(C)C)CCC21CCN(C(=O)NC(C)C)CC1 | -4.546% | 22.02%
Fc1cnc(N2CCCn3c(nnc3Cn3cccn3)C2)nc1 | -16.64% | -46.05% and -1.009%
CCNC(=O)NC1CCC(Oc2ccccc2C#N)CC1 (stereo not drawn) | 14.86% | -14.95%
CCc1ccc(C2c3nc[nH]c3CCN2Cc2nccn2CC)nc1 (stereo not drawn) | -15.08% | -42.09%
CC(NC(=O)C1CCCC1)c1nc(-c2ccccc2)c[nH]1 (stereo not drawn) | 1.254% | 16.49%
CC(NCc1ccccc1CN1CCCC1=O)c1ccc(C#N)cc1 (stereo not drawn) | -1.446% | 17.47%
O=C(NCc1ccccc1F)NCC(O)c1cccc(F)c1 (stereo not drawn) | -23.35% | -3.927%
O=C(O)C(F)(F)F.c1csc(CNCC2COCc3c(-c4ccoc4)nnn3C2)n1 (stereo not drawn) | -14.64% | -11.91%
O=C(CCCC(=O)NCc1cccc(Br)c1)NCCN1CCCC1 | 16.46% | 12%
N#Cc1cccc(OCCN2CCCC2C(=O)NC2CC2)c1 (stereo not drawn) | 2.058% | 17.68%
CCS(=O)(=O)N1CCC(c2cc3n(n2)[C@@H](C(F)(F)F)C[C@@H](C)N3)CC1 | 2.298% | 29.23%
O=C(Nc1nncs1)N1CCC(CCO)CC1 | -8.953% and 4.495% | -10.57%
c1cnn(CC2CN(CC3CCCCC3)CCO2)c1 (stereo not drawn) | -22.14% | -17.29%
COc1cc(CNC(=O)Nc2nnc(C(C)C)s2)ccc1O | -8.742% | 7.054%
CC(=O)NC(C)C(=O)NCc1ccc(N2CCNC(=O)C2)cc1 (stereo not drawn) | -4.913% | 29.36%
Cn1cccc1C(O)CNC(=O)COc1ccccc1F (stereo not drawn) | 5.922% | 6.345% and 26.75%
CNc1cc2c(nn1)CCN(C(=O)c1ccccc1-n1cccn1)C2 | 4.019% | -3.711%
Cc1occc1C(=O)NCc1ccc(N2CCCC(C(N)=O)C2)cc1 (stereo not drawn) | -22.43% | -27.71%
O=C(O)C(F)(F)F.[H][C@@]12C[C@@H](C(=O)N3CCCC3)C[C@@]1([H])N(CC1CC1)CCO2 | 28.01% | 13.11% and -4.834%

The last 6 entries again:

Compound,A,B
COc1cc(CNC(=O)Nc2nnc(C(C)C)s2)ccc1O,-8.742%,7.054%
CC(=O)NC(C)C(=O)NCc1ccc(N2CCNC(=O)C2)cc1 (stereo not drawn),-4.913%,29.36%
Cn1cccc1C(O)CNC(=O)COc1ccccc1F (stereo not drawn),5.922%,6.345% and 26.75%
CNc1cc2c(nn1)CCN(C(=O)c1ccccc1-n1cccn1)C2,4.019%,-3.711%
Cc1occc1C(=O)NCc1ccc(N2CCCC(C(N)=O)C2)cc1 (stereo not drawn),-22.43%,-27.71%
O=C(O)C(F)(F)F.[H][C@@]12C[C@@H](C(=O)N3CCCC3)C[C@@]1([H])N(CC1CC1)CCO2,28.01%,13.11% and -4.834%